Values of other authors, collected in patent US9283269B2, “Method for reducing the allergenicity of animal dander” (IMMUNOPATH PROFILE, INC., priority 1998, dated 2016).
For at least one compound, name, drawing or mass did not settle the structure.

How the values were obtained:
experimental colitis = settings: rat, in vivo; cited from earlier work
NfkappaB = settings: via inhibition of NfkappaB activation and IkeppaBalpha degradation; cited from earlier work

Q: With `CCCC(=O)O` [butyrate] as the compound, how does the “effect of enema therapy on colon” value (experimental colitis) read?
A: Its value is “stimulated colonic repair”.

Q: And the “effect on pro-inflammatory cytokine expression” value (NfkappaB)?
A: The value was “decreases pro-inflammatory cytokine expression”.
